Source: the supplement of paper PMC10849652
This is one part of the list.

Sequences of proteins named here, by UniProt entry; tags and fusion partners are left off. A change or cut given only in a name is not applied to a line headed by its entry.
UniProt A6ND36: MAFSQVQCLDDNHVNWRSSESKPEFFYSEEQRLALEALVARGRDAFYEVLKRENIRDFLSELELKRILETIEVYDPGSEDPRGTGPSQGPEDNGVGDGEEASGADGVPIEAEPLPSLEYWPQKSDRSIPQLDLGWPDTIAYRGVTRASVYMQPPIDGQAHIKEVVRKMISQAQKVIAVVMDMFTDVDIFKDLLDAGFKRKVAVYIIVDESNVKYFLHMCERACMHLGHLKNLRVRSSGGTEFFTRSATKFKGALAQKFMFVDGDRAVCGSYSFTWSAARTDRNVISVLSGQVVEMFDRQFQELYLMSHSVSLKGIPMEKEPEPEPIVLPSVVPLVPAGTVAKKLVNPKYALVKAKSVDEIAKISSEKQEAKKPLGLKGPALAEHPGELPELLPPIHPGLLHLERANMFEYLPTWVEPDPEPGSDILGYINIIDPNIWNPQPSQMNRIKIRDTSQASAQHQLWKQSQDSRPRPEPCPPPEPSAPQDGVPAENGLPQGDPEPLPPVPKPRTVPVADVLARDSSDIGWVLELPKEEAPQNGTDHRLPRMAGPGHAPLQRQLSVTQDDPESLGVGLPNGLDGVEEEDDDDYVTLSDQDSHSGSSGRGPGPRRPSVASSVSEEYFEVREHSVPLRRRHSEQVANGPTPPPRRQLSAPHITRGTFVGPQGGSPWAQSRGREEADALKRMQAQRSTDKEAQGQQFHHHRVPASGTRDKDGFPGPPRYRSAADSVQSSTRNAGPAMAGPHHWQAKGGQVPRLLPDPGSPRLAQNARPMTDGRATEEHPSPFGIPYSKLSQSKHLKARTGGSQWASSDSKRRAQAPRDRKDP
UniProt Q9UK97: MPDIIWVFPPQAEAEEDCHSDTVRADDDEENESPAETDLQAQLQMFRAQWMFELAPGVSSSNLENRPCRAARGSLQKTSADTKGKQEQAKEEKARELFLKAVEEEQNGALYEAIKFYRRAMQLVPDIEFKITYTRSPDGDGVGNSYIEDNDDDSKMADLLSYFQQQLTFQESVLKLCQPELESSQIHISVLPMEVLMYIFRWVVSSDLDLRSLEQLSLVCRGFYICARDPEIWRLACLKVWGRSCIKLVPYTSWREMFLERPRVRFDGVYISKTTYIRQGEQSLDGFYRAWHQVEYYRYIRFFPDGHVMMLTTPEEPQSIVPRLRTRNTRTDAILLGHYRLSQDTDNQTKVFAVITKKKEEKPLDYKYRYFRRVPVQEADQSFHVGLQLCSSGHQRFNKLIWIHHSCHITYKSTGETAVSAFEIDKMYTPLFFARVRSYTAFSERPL
UniProt P02679: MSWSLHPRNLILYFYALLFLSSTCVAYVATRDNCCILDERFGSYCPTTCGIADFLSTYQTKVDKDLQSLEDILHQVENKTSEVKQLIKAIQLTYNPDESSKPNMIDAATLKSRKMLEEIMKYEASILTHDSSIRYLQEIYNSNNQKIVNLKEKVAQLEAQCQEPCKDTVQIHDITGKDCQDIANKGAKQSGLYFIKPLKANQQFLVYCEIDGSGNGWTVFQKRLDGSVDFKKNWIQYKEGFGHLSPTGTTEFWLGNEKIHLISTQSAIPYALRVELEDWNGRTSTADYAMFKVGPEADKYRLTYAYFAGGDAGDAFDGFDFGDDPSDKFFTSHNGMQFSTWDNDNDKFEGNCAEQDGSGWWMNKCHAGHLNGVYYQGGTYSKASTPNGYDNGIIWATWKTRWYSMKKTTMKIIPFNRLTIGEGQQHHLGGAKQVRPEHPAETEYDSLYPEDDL
UniProt Q86XK2: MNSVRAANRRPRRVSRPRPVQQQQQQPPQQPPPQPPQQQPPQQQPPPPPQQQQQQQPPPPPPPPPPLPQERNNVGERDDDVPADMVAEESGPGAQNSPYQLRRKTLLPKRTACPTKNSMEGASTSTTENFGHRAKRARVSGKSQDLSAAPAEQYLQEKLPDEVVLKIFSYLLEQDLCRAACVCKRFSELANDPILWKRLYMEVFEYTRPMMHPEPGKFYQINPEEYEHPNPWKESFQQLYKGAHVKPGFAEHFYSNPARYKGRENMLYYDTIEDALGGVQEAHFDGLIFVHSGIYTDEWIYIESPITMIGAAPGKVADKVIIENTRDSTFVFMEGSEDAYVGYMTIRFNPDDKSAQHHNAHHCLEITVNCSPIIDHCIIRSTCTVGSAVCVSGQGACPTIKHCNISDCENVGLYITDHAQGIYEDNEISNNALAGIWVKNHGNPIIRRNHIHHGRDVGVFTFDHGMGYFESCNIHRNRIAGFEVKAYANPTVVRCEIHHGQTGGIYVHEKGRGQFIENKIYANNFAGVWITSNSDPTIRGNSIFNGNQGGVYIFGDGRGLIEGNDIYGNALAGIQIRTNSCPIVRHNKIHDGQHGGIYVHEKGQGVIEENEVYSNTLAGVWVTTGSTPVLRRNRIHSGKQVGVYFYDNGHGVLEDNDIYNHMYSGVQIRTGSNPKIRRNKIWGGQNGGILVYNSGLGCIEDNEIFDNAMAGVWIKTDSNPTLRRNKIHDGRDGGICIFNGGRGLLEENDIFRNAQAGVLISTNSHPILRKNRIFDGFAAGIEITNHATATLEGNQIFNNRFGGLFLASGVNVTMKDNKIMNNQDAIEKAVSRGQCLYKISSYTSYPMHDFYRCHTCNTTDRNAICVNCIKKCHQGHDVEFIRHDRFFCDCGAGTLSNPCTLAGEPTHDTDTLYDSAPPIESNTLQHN
UniProt Q9NW38: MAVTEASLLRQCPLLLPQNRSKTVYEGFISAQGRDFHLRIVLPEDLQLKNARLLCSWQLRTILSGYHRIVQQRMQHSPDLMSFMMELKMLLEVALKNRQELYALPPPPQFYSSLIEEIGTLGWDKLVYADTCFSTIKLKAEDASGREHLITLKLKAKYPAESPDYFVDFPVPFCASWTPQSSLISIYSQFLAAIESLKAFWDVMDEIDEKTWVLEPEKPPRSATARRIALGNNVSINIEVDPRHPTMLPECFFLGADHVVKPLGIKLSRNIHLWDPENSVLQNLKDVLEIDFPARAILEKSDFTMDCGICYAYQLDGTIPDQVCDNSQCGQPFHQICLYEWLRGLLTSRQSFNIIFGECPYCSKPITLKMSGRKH
UniProt P17948, whole entry, looked up: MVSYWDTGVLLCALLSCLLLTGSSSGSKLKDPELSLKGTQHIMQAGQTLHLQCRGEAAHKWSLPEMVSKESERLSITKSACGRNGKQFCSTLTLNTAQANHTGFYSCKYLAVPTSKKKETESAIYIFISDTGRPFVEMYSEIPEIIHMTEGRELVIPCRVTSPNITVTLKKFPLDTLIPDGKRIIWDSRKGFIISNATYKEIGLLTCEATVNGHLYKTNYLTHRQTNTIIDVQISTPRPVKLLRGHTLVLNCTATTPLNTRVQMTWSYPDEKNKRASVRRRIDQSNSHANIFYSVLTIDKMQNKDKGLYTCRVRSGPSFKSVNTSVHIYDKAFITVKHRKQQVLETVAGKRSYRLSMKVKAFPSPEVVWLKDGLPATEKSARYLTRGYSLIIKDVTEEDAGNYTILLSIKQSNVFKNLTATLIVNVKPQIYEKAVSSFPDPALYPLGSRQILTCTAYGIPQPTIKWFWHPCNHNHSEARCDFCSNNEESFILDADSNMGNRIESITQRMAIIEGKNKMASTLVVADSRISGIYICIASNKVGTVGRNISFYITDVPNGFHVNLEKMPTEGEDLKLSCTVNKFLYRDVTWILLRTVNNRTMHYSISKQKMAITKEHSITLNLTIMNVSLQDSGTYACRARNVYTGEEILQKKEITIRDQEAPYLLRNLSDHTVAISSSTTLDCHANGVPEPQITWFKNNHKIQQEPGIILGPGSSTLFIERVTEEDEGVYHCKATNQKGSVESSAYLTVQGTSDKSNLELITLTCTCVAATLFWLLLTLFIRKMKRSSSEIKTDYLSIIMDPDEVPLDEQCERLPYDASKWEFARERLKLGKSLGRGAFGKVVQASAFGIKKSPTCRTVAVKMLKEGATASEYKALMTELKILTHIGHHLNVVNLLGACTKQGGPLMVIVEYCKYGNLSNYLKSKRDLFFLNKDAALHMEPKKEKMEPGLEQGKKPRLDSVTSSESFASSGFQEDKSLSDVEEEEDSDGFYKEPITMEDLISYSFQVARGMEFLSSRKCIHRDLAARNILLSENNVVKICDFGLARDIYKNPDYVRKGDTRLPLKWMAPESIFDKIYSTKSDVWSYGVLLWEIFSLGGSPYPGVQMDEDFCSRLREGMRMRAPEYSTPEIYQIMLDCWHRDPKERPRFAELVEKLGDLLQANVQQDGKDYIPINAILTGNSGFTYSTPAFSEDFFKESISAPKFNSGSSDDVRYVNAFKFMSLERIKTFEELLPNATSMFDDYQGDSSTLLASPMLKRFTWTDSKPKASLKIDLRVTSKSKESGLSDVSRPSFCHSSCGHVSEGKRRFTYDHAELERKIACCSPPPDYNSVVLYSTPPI
UniProt Q96C11: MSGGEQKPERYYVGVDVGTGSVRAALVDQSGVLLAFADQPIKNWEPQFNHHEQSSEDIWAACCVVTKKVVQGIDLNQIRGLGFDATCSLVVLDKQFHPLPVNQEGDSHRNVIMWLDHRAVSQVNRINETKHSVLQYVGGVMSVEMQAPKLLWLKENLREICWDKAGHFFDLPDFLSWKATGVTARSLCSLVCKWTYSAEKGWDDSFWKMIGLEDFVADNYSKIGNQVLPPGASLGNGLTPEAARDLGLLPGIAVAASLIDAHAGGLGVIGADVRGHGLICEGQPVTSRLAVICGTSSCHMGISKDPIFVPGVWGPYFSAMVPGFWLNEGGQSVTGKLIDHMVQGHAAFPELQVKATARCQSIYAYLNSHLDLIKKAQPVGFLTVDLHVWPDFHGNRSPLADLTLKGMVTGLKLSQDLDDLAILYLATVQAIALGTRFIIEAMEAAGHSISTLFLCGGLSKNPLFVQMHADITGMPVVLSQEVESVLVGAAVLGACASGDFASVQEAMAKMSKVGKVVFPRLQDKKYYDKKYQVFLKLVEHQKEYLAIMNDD
UniProt Q17RN3: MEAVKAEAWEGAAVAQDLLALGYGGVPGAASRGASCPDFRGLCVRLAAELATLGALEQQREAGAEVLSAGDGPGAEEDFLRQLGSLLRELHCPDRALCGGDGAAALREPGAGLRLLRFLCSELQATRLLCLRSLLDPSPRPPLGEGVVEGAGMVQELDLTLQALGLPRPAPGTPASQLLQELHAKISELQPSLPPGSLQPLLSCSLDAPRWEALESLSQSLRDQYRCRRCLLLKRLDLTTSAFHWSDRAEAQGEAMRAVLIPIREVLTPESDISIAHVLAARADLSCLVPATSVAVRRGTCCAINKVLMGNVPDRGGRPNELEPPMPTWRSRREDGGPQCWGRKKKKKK
UniProt Q9Y2H6: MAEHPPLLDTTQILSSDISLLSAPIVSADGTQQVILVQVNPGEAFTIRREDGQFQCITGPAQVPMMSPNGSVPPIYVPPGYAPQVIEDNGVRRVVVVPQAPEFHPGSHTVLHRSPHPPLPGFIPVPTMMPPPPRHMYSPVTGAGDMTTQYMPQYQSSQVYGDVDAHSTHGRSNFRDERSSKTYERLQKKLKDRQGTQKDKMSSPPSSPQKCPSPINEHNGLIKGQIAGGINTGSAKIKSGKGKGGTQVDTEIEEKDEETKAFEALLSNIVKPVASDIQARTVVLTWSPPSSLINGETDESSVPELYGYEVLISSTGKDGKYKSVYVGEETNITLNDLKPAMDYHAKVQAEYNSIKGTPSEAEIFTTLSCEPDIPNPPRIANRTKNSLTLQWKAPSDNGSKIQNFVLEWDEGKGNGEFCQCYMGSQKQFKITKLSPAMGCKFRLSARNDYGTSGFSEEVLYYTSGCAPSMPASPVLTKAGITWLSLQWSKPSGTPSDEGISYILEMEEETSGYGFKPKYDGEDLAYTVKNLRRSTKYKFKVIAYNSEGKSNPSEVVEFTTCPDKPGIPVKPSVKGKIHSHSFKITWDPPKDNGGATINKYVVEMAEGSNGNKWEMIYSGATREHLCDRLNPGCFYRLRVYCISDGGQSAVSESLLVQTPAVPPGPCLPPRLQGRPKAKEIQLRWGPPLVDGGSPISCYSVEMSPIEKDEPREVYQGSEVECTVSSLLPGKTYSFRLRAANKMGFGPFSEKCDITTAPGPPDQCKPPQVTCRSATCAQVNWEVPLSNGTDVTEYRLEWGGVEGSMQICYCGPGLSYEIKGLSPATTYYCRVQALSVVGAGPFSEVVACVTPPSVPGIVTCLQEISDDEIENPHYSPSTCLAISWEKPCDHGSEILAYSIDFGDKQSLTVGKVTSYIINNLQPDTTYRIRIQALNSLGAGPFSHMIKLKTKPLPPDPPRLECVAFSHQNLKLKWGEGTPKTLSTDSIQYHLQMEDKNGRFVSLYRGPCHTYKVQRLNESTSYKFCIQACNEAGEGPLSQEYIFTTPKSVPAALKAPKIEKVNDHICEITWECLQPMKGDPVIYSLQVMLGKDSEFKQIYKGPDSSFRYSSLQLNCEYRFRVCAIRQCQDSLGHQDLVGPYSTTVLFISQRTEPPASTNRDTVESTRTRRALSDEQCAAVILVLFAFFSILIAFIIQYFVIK

How the values were obtained:
Experiment in all cases: log2 fold change, soluble protein after heating vs DMSO (PISA); higher = thermal stabilisation; K562 cells, 10 uM, 30 min; active = over 0.2 and 3.5 SD of the protein, either way, in both replicates (recomputed)
[1] = compound: C[C@@H]1COCCN1C2=NC(=NC(=C2)C3(CC3)S(=O)(=O)C)C4=C5C=CNC5=CC=C4
Method in brief: (§1)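 K562 cells at 2×10^6 cells/mL were treated with 10 μM compound for 30 min. Aliquots were heated for 3 min across 48°C-58°C, pooled, and extracted in PBS with 0.5% NP-40 at 4°C; soluble protein was the supernatant after 21,000xg for 90 min. Soluble protein was quantified by TMTpro 16plex LC-MS/MS with channel sums equalised, and reported as log2 fold change in thermal stability against DMSO controls, with values from duplicates.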

[2] = compound: C[C@H](Nc1ncnc2nc[nH]c12)c1cc2cccc(Cl)c2c(=O)n1-c1ccccc1 [duvelisib]
Method in brief: as §1

[3] = compound: Cc1cc(Nc2cc(N3CCN(C)CC3)nc(Sc3ccc(NC(=O)C4CC4)cc3)n2)n[nH]1 [tozasertib]
Method in brief: as §1

[4] = compound: Cc1cc(SCc2sc(-c3ccc(C(F)(F)F)cc3)nc2C)ccc1OCC(=O)O
Method in brief: as §1

[5] = compound: Cc1nc(Nc2ncc(C(=O)Nc3c(C)cccc3Cl)s2)cc(N2CCN(CCO)CC2)n1 [dasatinib]
Method in brief: as §1

[6] = compound: CS(=O)(=O)c1ccc(-c2cnc(N)c(C(=O)Nc3ccccc3)n2)cc1
Method in brief: as §1

[7] = compound: C[C@H](C1=CC=C(C=C1)C(=O)NC2=C3C=CNC3=NC=C2)N
Method in brief: as §1

[8] = compound: Cc1cc(Nc2cc(CN3CCOCC3)c3nc(C)c(Cc4ccc(Cl)cc4F)n3n2)n[nH]1 [gandotinib]
Method in brief: as §1

[9] = compound: Cc1ccc(C(=O)N(CCCN)[C@@H](c2nc3cc(Cl)ccc3c(=O)n2Cc2ccccc2)C(C)C)cc1 [ispinesib]
Method in brief: as §1

[10] = compound: Cc1cccc(CC(=O)N2CCc3c2ccc(-c2cn(C)c4ncnc(N)c24)c3F)n1
Method in brief: as §1

[11] = compound: Cc1cn(-c2cc(NC(=O)c3ccc(C)c(Nc4nccc(-c5cccnc5)n4)c3)cc(C(F)(F)F)c2)cn1 [nilotinib]
Method in brief: as §1

[12] = compound: Cc1nc(Nc2n[nH]c3c2CN(C(=O)N[C@H](CN(C)C)c2ccccc2)C3(C)C)c2sccc2n1
Method in brief: as §1

[13] = compound: Cc1ncc(-c2ccnc(Nc3ccc(S(C)(=O)=O)cc3)n2)n1C(C)C
Method in brief: as §1

[14] = compound: Cn1cc(-c2ccc3c(c2)CCN3C(=O)Cc2cccc(C(F)(F)F)c2)c2c(N)ncnc21
Method in brief: as §1

[15] = compound: Cn1cc(-c2ccc3nnc(C(F)(F)c4ccc5ncccc5c4)n3n2)cn1
Method in brief: as §1

[16] = compound: Cn1cncc1[C@@](N)(c1ccc(Cl)cc1)c1ccc2c(c1)c(-c1cccc(Cl)c1)cc(=O)n2C [tipifarnib]
Method in brief: as §1

[17] = compound: C[C@@H](Oc1cc(-c2cnn(C3CCNCC3)c2)cnc1N)c1c(Cl)ccc(F)c1Cl [crizotinib]
Method in brief: as §1

[18] = compound: Cc1ccc(-n2nc(C(C)(C)C)cc2NC(=O)Nc2ccc(OCCN3CCOCC3)c3ccccc23)cc1 [doramapimod]
Method in brief: as §1

[19] = compound: Cc1ccc(NC(=O)c2ccc(CN3CC[C@H](N(C)C)C3)c(C(F)(F)F)c2)cc1Nc1nccc(-c2cncnc2)n1 [bafetinib]
Method in brief: as §1

[20] = compound: FC(F)(F)c1ccc(/C=C/c2nc(COc3ccc(CCCCn4ccnn4)cc3)co2)cc1 [mubritinib]
Method in brief: as §1

Measured: log2 fold change

FAM83G (UniProt A6ND36)
inactive: [1] -0.173 | [2] 0.134 | [3] -0.034 | [4] -0.054 | [5] 0.102

FAM53C (UniProt Q9NYF3)
inactive: [6] 0.03 | [7] -0.034 | [8] -0.024 | [3] 0.144 | [9] -0.105 | [10] -0.041 | [11] 0.353 | [12] -0.015 | [13] -0.219 | [14] -0.101 | [15] -0.118 | [16] -0.105

FBXO9 (UniProt Q9UK97)
inactive: [17] 0.028 | [7] -0.046 | [8] -0.151 | [4] 0.079 | [18] -0.081 | [9] -0.057 | [19] 0.067 | [10] 0.234 | [11] 0.087 | [12] -0.354 | [5] -0.056 | [13] -0.113 | [14] -0.236 | [15] -0.093 | [16] -0.088 | [20] -0.265

FAM222B (UniProt Q8WU58)
inactive: [1] 0.12 | [2] 0.13 | [3] -0.034 | [4] 0.053 | [9] -0.126 | [5] -0.182 | [15] 0.243 | [16] 0.13 | [20] 0.085

FHAD1 isoform 3 (UniProt B1AJZ9)
inactive: [17] -0.079 | [7] -0.183 | [2] -0.082 | [8] -0.105 | [3] -0.078 | [4] 0.054 | [18] -0.223 | [9] -0.115 | [19] -0.678 | [10] 0.074 | [5] -0.037 | [14] 0.218 | [15] -0.075 | [16] 0.133

FGG (UniProt P02679)
inactive: [8] -0.153 | [9] -0.052 | [10] 0.165 | [15] -0.018 | [16] 0.127

FMR1NB (UniProt Q8N0W7)
inactive: [1] -0.288

FBRSL1 (UniProt Q9HCM7)
inactive: [1] -0.092 | [3] -0.043 | [9] -0.165 | [11] 0.111 | [12] -0.006 | [13] -0.189 | [15] -0.07

FAM76A isoform 3 (UniProt Q8TAV0)
inactive: [6] 0.065 | [1] -0.078 | [8] -0.018 | [3] -0.087 | [19] -0.098 | [10] -0.066 | [16] 0.052

FITM2 (UniProt Q8N6M3)
inactive: [19] -0.114 | [11] 0.073 | [12] 0.07 | [13] 0.211 | [20] 0.08

FBXO11 isoform 5 (UniProt Q86XK2)
inactive: [6] 0.091 | [1] -0.286 | [3] -0.066 | [16] 0.3 | [20] 0.034

FANCL isoform 2 (UniProt Q9NW38)
inactive: [7] -0.179 | [14] 0.104

FAM83A (UniProt Q86UY5)
inactive: [6] 0.008 | [1] -0.154 | [8] -0.171 | [3] 0.087 | [9] -0.16 | [10] 0.149 | [11] 0.06 | [12] -0.107 | [13] 0.371 | [15] 0.145 | [16] -0.219 | [20] -0.089

FGF17 (UniProt O60258)
inactive: [8] 0.429 | [10] -0.164

FBXO44 (UniProt Q9H4M3)
inactive: [6] 0.003 | [7] -0.067 | [9] -0.027 | [19] -0.121 | [11] 0.1 | [12] 0.056 | [13] 0.255 | [14] 0.252 | [15] 0.028

FLT1 (UniProt P17948)
inactive: [2] -0.015 | [4] -0.043 | [16] 0.197

FBXO33 (UniProt Q7Z6M2)
inactive: [1] 0.04 | [19] 0.074

FGGY isoform 3 (UniProt Q96C11)
inactive: [17] 0 | [1] -0.145 | [7] -0.125 | [2] 0.089 | [8] -0.175 | [3] 0.035 | [4] 0.131 | [18] -0.101 | [9] 0.067 | [19] 0.024 | [10] 0.115 | [5] -0.03 | [14] 0.032 | [15] -0.042 | [16] 0.104 | [20] 0.195

FAM98C (UniProt Q17RN3)
inactive: [7] 0.288 | [8] 0.013 | [10] -0.071 | [14] -0.001 | [20] -0.562

FGFR1OP2 (UniProt Q9NVK5)
inactive: [17] 0.21 | [1] 0.039 | [7] 0.053 | [2] 0 | [8] -0.003 | [3] 0.022 | [4] -0.036 | [18] 0.022 | [19] -0.052 | [10] 0.037 | [11] 0.037 | [12] 0.04 | [5] -0.077 | [13] -0.121 | [14] -0.007 | [20] -0.072

FGFR1OP2 isoform 2 (UniProt Q9NVK5)
inactive: [7] -0.054 | [14] -0.064 | [16] 0.034

FBXW11 (UniProt Q9UKB1)
inactive: [17] -0.174 | [7] 0.106 | [2] -0.149 | [8] 0.063 | [3] 0.046 | [4] -0.028 | [18] 0 | [9] -0.147 | [10] -0.004 | [5] -0.077 | [14] -0.119 | [15] -0.094 | [16] 0.076

Fetched one by one from the entries so far (2):
FAM98C (UniProt Q17RN3)
inactive: [7] 0.288 | [8] 0.013 | [10] -0.071 | [14] -0.001 | [20] -0.562

FGGY isoform 3 (UniProt Q96C11)
inactive: [17] 0 | [1] -0.145 | [7] -0.125 | [2] 0.089 | [8] -0.175 | [3] 0.035 | [4] 0.131 | [18] -0.101 | [9] 0.067 | [19] 0.024 | [10] 0.115 | [5] -0.03 | [14] 0.032 | [15] -0.042 | [16] 0.104 | [20] 0.195

Continued.

FIG4 (UniProt Q92562)
inactive: [16] 0.167

FAXDC2 (UniProt Q96IV6)
inactive: [17] 0.028 | [18] -0.155 | [19] -0.129 | [11] -0.017 | [12] -0.036 | [13] 0.096

FNBP1 (UniProt Q96RU3)
inactive: [2] -0.101 | [3] -0.156 | [4] 0.408 | [5] -0.414

FNDC3A (UniProt Q9Y2H6)
inactive: [3] -0.212
